These results are taken from PMC10158032.

By UniProt entry, the sequences of proteins in these tests, tags left out. Where a name states a change or a piece, a line headed by the entry shows the natural chain unless it says otherwise. Residues count along the entry.
UniProt P14780: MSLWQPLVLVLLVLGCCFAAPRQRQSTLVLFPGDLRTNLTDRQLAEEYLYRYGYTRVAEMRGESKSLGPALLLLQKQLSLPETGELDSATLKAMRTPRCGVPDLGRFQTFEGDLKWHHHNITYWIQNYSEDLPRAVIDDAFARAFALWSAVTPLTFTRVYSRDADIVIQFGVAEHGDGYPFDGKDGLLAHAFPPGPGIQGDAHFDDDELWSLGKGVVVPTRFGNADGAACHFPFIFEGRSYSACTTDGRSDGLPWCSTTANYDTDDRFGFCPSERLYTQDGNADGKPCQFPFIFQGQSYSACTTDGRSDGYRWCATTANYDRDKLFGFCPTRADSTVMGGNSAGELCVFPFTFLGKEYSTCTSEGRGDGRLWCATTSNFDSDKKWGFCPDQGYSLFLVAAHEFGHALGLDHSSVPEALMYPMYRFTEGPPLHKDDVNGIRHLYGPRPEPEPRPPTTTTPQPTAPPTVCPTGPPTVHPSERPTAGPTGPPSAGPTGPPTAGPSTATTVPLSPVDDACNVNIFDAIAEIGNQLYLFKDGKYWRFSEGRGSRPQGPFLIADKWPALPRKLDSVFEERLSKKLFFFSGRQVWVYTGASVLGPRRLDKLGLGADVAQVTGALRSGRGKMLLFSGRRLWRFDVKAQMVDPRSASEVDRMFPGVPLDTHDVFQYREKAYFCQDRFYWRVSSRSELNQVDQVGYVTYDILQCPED
UniProt Q6UX06, residues 21-510: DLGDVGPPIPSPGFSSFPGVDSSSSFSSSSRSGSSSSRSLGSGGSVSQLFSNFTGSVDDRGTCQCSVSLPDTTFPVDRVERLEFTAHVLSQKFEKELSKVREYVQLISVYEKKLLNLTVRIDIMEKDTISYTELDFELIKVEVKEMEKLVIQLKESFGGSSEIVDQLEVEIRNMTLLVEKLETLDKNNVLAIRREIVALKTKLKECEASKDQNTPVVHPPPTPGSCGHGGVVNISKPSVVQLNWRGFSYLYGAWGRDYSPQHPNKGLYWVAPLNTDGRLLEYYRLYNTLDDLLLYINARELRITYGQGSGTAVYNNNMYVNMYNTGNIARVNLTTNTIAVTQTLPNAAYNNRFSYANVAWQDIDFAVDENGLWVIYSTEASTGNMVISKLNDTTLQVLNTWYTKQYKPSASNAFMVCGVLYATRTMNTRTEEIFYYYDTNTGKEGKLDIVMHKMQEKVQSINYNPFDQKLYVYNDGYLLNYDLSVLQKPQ

No constants are given. Whether binding was seen depends on the method and setting. In cells and extracts the contact can be indirect. Binding calls can cover weak binding; strength is not graded here.

The target of assay [1] is Matrix metalloproteinase-9 (UniProt P14780). Nature of the assay: co-IP; in 293T cells; bait, antibodies and buffer not told.
Assay [2] has the same target. Nature of the assay: co-IP; in HCT116 cells; bait, antibodies and buffer not told.

For “Olfactomedin-4 (from UniProt Q6UX06 21-510)”, the binding entry in assay [1] and in assay [2] was “binds” throughout.
